Results published in article PMC4471195.
Results are given in words; binding and its absence hold for the method and conditions named. In cells and extracts the contact can be indirect.

Protein sequences, listed by entry. Tags and fused reporters are not part of them. Residues count along the entry.
UniProt P55854, residues 1-92: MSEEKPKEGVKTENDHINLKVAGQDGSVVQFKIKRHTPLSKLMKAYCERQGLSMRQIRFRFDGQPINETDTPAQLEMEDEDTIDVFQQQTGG
UniProt Q7Z494: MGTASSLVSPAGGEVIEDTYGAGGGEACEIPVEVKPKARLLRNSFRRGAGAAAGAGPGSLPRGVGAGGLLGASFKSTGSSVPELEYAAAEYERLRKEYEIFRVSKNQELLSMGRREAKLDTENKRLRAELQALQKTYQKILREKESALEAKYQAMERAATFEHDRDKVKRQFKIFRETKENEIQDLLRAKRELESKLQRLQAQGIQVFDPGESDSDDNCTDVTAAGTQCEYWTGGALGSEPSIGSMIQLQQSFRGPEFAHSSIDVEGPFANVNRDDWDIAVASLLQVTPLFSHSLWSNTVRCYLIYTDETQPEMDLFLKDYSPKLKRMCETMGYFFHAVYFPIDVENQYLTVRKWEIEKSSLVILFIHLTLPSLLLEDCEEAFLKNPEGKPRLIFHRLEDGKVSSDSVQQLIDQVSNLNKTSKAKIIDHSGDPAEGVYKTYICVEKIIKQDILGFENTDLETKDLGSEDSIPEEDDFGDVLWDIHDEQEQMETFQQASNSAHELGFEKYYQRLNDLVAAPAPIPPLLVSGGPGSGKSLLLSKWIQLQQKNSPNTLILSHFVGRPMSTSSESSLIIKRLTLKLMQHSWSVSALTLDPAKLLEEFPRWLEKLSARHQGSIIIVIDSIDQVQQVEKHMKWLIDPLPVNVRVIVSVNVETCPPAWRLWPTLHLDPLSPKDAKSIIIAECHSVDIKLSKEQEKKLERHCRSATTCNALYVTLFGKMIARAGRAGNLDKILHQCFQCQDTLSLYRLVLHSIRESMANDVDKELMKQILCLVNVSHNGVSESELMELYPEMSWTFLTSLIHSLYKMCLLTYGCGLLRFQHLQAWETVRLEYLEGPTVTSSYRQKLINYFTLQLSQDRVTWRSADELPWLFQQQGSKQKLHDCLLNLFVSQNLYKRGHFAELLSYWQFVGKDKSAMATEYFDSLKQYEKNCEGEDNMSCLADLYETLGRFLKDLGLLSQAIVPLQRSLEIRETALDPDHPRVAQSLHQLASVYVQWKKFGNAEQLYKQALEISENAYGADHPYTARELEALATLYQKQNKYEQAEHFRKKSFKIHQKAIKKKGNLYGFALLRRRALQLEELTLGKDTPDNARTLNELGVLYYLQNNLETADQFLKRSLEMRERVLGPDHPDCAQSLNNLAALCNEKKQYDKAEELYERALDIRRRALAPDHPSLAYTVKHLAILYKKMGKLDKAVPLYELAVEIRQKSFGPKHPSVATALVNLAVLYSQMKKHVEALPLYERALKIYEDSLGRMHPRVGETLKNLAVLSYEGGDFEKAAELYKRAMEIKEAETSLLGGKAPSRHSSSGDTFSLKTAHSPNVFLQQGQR

Biological target: His-tagged SUMO-3 (UniProt P55854)
Test: pull-down; His-tagged SUMO proteins co-transfected with V5-tagged proteins in HEK 293T, 36 h; Ni-NTA beads, non-denaturing conditions; anti-V5 blot

binding: no binding
Substance: V5-tagged NPHP3 (from UniProt Q7Z494 1-1330)
